Experimental data: paper PMC10387110
No constants are given. Whether binding was seen depends on the method and setting. Binding seen in cells or lysates may run through a third protein. Some results given as binding are weak or reduced against the parent protein; the word gives no strength. Where a sequence is shown, tags or fusion partners need not be part of it.

Amino acid sequences for entries named in this document (tags omitted).
UniProt Q61025: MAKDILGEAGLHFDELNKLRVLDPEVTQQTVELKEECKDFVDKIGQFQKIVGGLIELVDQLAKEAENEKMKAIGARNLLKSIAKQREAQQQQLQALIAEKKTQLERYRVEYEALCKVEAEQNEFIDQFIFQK
UniProt E9PY46: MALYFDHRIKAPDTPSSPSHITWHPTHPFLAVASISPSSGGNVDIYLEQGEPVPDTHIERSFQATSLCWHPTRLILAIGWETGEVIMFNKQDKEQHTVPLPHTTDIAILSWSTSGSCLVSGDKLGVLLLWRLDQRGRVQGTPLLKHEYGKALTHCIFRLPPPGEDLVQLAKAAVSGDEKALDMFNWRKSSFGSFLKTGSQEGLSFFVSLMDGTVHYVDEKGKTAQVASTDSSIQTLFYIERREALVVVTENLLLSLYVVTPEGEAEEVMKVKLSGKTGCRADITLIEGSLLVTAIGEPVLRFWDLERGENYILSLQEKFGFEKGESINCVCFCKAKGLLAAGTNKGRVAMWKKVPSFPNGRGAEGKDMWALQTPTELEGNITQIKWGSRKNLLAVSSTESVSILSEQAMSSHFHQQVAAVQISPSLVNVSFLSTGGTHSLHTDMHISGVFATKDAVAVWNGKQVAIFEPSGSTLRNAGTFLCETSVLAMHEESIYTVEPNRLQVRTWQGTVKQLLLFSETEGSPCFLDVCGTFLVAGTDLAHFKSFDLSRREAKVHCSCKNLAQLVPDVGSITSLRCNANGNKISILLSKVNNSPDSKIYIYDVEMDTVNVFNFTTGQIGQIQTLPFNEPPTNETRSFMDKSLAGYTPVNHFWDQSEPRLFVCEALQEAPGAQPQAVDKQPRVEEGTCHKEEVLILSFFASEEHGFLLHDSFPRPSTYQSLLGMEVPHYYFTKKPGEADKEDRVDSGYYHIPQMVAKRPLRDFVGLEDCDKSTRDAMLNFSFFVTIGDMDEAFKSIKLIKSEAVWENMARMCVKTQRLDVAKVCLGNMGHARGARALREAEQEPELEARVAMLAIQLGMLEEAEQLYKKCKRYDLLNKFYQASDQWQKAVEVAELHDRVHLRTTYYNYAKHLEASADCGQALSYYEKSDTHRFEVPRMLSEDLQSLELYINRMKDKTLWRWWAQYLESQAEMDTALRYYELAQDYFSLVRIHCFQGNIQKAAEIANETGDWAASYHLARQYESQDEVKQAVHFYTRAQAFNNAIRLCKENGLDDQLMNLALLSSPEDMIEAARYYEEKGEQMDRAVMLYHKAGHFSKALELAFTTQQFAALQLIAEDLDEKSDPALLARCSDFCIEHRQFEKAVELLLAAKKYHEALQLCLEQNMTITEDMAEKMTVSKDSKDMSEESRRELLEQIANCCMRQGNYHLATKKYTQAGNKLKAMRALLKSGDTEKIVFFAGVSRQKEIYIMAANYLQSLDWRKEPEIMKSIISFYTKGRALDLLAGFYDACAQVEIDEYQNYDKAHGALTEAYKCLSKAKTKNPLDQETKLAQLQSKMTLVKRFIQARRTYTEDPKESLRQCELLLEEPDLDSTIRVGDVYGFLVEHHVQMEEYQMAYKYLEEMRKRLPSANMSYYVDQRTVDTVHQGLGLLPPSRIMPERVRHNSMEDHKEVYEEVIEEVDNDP

T1: Myc-tagged WDR11 (UniProt Q9BZH6)
T1 sequence: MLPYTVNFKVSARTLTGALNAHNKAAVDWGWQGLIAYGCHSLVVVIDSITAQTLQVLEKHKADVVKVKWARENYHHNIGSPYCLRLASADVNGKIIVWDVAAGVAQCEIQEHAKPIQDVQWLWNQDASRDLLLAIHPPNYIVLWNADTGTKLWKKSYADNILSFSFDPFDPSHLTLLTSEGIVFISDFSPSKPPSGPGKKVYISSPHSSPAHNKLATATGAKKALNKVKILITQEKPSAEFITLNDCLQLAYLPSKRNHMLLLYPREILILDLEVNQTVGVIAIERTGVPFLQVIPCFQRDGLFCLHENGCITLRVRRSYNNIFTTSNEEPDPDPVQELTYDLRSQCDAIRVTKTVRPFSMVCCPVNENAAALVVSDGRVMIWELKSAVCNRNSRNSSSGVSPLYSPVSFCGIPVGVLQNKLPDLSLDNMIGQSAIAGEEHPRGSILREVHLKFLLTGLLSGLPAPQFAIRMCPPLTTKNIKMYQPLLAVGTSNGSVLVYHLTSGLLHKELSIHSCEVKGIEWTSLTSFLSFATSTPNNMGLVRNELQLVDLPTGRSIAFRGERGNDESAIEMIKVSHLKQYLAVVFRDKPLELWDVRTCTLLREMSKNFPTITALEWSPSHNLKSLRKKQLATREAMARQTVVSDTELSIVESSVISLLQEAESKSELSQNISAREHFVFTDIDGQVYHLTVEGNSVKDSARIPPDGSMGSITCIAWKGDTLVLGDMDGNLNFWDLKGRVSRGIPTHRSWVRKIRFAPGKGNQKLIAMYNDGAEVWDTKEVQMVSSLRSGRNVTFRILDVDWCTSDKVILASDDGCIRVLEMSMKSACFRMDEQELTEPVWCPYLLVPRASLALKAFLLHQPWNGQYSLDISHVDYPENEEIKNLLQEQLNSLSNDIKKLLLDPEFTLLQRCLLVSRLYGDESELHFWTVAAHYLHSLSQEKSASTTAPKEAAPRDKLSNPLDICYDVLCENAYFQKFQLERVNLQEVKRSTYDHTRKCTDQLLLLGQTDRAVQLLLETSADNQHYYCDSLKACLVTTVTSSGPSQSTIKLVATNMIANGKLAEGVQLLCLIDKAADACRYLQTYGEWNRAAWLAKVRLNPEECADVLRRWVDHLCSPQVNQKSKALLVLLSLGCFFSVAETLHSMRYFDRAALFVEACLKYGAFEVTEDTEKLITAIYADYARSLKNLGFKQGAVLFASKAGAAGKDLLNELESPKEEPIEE

B1: IFT57 (protein, UniProt Q8BXG3 1-429)
chain: MAAAAAVIPPSGLDDGVSRARGEGAGEAVVERGPGAAYHMFVVMEDLVEKLKLLRYEEELLRKSNLKPPSRHYFALPTNPGEQFYMFCTLAAWLINKTGRAFEQPQEYDDPNATISNILSELRSFGRTADFPPSKLKSGYGEQVCYVLDCLAEEALKYIGFTWKRPSYPVEELEEETVPEDDAELTLSKVDEEFVEEETDNEENFIDLNVLKAQTYRLDTNESAKQEDILESTTDAAEWSLEVERVLPQLKVTIRTDNKDWRIHVDQMHQHKSGIESALKETKGFLDKLHNEISRTLEKIGSREKYINNQLEHLVQEYRGAQAQLSEARERYQQGNGGVTERTRLLSEVTEELEKVKQEMEEKGSSMTDGTPLVKIKQSLTKLKQETVQMDIRIGVVEHTLLQSKLKEKCNMTRDMHAAVTPESAIGFY
B2: IFT88 (protein, UniProt Q61371 1-824)
chain: MENVHLAPETDEDDLYSGFNDYNPAYDTEELENDTGFQQAVRTSHGRRPPVTAKIPSTAVSRPIATGYGSKTSLTSSMGRPMTGTIQDGVARPMTAVRAAGFSKAALRGSAFDPLGQSRGPAPPLEAKNEDSPEEKIRQLEKKVNELVEESCIANSCGDLKLALEKAKDAGRKERVLVRQREQVTSPENINLDLTYSVLFNLASQYSANEMYAEALNTYQVIVKNKMFSNAGRLKVNMGNIYLKQRNYSKAIKFYRMALDQIPSVHKEMRIKIMQNIGITFIKTGQYSDAINSFEHIMSMAPSLKAGFNLILSCFAIGDREKMKKAFQKLIAVPLEIDEDDKYISPSDDPHTNLLIEAIKNDHLRQMERERKAMAEKYIMTAAKLIAPVIEASFAVGYNWCVEVVKASQYVELANDLEINKAITYLRQKDFNQAVDTLKMFEKKDSRVKSAAATNLSFLYYLENEFAQASSYADLAVNSDRYNPSALTNKGNTVFANGDYEKAAEFYKEALRNDSSCTEALYNIGLTYKKLNRLDEALDSFLKLHAILRNSAQVLCQIANIYELMEDPNQAIEWLMQLISVVPTDSQALSKLGELYDSEGDKSQAFQYYYESYRYFPSNIEVIEWLGAYYIDTQFCEKAIQYFERASLIQPTQVKWQLMVASCFRRSGNYQKALDTYKEIHRKFPENVECLRFLVRLCTDIGLKEVQEYATKLKRLEKMKEMREQRIKSGRDSSGGSRSKREGSAGSDSGQNNSASSKSERLSAKLRALPGTDEPYESSGNKEIDASYVDPLGPQIERPKTAAKKRIDEDDFADEELGDDLLPE

target: T1, Myc-tagged WDR11; experiment: co-IP; NIH3T3 cells transfected with Myc-tagged WDR11 or empty vector; pre-cleared lysate (1-2 mg protein; 50 mM HEPES, 150 mM NaCl, 10% glycerol, 1% Nonidet P-40, 1 mM EDTA) immunoprecipitated with anti-Myc antibody, immune complexes captured on protein A/G-agarose beads, Western blot for endogenous IFT proteins

binding	Molecule
binds	IFT20 (from UniProt Q61025 1-132)
no binding	IFT140 (from UniProt E9PY46 1-1464)
binds	B1
binds	B2
